Measured values from patent publication US20200246488A1.
No constants are given. Whether binding was seen depends on the method and setting. In cells and extracts the contact can be indirect. A yes stands for co-enrichment or nearness to the bait. Other partners may have been found. Sequences can lack the tags named with a protein.

Protein sequences, listed by entry. Tags and fused reporters are not part of them.
UniProt Q9Y297: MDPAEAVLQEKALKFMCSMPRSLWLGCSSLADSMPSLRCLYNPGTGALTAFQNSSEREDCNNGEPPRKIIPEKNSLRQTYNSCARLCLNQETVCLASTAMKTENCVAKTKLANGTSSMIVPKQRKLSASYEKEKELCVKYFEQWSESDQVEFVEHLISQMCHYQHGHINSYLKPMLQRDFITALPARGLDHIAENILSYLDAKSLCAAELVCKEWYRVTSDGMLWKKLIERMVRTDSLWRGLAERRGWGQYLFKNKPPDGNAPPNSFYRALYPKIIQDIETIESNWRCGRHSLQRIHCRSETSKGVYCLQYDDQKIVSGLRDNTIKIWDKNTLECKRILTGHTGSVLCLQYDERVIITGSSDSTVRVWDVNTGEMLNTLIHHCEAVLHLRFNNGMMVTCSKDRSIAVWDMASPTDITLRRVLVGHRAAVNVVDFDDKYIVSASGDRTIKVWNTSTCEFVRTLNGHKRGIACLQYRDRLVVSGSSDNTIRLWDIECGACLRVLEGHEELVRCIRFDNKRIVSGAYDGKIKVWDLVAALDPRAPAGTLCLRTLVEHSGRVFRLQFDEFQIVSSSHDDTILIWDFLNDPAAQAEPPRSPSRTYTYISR
UniProt Q9UKB1: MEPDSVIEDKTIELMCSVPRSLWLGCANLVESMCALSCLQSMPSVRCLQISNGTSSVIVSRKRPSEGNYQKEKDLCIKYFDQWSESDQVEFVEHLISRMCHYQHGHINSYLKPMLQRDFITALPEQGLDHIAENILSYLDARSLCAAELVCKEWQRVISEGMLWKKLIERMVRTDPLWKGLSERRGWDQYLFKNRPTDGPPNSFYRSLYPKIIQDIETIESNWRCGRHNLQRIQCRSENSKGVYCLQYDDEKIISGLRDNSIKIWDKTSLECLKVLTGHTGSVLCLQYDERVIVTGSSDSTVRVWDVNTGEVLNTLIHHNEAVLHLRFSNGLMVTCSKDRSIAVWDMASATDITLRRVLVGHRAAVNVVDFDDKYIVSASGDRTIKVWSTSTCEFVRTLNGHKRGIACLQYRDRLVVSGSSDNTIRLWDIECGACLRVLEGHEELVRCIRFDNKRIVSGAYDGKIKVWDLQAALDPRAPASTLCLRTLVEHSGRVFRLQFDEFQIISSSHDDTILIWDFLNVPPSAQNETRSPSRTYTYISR

How the values were obtained:
[1] = target: BTRC1, endogenous (human) (UniProt Q9Y297); assay: tandem mass spectrometry-based affinity proteomics, FLAG immunoprecipitation from HEK293T cells
[2] = target: FBXW11, endogenous (human) (UniProt Q9UKB1); assay: as above

B1: FLAG-tagged C1orf106 (WT) (protein, UniProt Q3KP66-3 1-578, looked up, not shown: small tags and cut ends)
chain: MESKDEVSDTDSGIILQSGPDSPVSPMKELTHAVHKQQRALEARLEACLEELRRLCLREAELTGTLPAEYPLKPGEKAPKVRRRIGAAYKLDDWALHREDPLSSLERQLALQLQITEAARRLCLEENLSRQARRQRKHSMLQEEKKLQELQRCLVERRRNSEPPPAAALPLGRELSASDDSSLSDGLLLEEEESQVPKPPPESPAPPSRPLPPQTLEGLQPTGPEAGSPERAPVQNSPWKETSLDHPYEKPRKSSEPWSESSSPATTPQDGPSASSLWLLEPASYHVVPIRGVPGQWQGRTSAPATPEIQGRRGQSQSLRVDSFRAGPEGRGRSAFPRRRPTHYTVTVPDSCFPATKPPLPHAACHSCSEDSGSDVSSISHPTSPGSSSPDISFLQPLSPPKTHRHRGAWVPAGSRELVAHHPKLLLPPGYFPAGRYVVVAESPLPPGEWELRRAAPGPAYEEEGTPLRYQRLVPSRSRIVRTPSLKDSPAGRGLSKAAVSEELKWWHERARLRSTRPHSLDRQGAFRVRSLPLGREGFGRALGPRAQVPTVCVLRRSPDGAPVQVFVPEKGEIISQV
binding [1]: binds | binding [2]: binds
